Taken from: PubChem BioAssay AID493246 (Drosophila RNAi Screening Center, 2011)
The deposit covers about 21,000 reagents; shown is a random part of those with a known target gene and a result. In the full data, 429 (2%) were called active. 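Values are raw and not normalised between plates; calls rest on per-plate z-scores that were not deposited.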 Reagents against one gene are numbered here. Names joined by + are all predicted targets of the reagent. The record does not give: the amount of reagent, the time to read-out.

- Screen: 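Identify essential fly genes by loss of cell viability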 (primary screen)
- System: Drosophila Kc and S2R+ cells
- Reagents: long dsRNA against Drosophila genes
- Detection: 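Raw, unnormalised count of remaining cells in each well; per-plate z-scores of cell number underlie the calls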
- Direction: Kc cell number and S2R+ cell number: higher = more cells remaining
- Rule for the call: 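Active when the per-plate z-score of cell number is 3 or more in the direction of fewer cells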

| predicted target | dsRNA no. | Kc cell number, rep 1 | Kc cell number, rep 2 | S2R+ cell number, rep 1 | S2R+ cell number, rep 2 | call |
| --- | --- | --- | --- | --- | --- | --- |
| CG13325 | 1 | 1.26e6 | 1.23e6 | 1.02e6 | 8.89e5 | inactive |
| FucTA | 1 | 1.37e6 | 1.45e6 | 1.27e6 | 1.32e6 | inactive |
| Obp83cd | 1 | 1.46e6 | 1.63e6 | 1.34e6 | 1.34e6 | inactive |
| Dark | 1 | 1.38e6 | 1.42e6 | 1.28e6 | 1.37e6 | inactive |
| CG15754 | 1 | 1.66e6 | 1.56e6 | 1.18e6 | 1.35e6 | inactive |
| CG13050 | 1 | 1.49e6 | 1.66e6 | 1.31e6 | 1.42e6 | inactive |
| CG31446 | 1 | 1.61e6 | 1.82e6 | 1.15e6 | 1.32e6 | inactive |
| CG12133 | 1 | 1.51e6 | 1.59e6 | 1.28e6 | 1.45e6 | inactive |
| CG2955 | 1 | 1.54e6 | 1.52e6 | 7.86e5 | 8.35e5 | inactive |
| mAChR-A | 1 | 1.75e6 | 1.88e6 | 1.15e6 | 1.28e6 | inactive |
| CG9010 | 1 | 1.40e6 | 1.44e6 | 1.27e6 | 1.28e6 | inactive |
| Gmppb | 1 | 1.62e6 | 1.60e6 | 1.18e6 | 1.24e6 | inactive |
| wnd | 1 | 1.45e6 | 1.52e6 | 1.07e6 | 1.23e6 | inactive |
| wnd | 2 | 1.52e6 | 1.54e6 | 1.42e6 | 1.39e6 | inactive |
| Muc26B | 1 | 1.66e6 | 1.38e6 | 1.14e6 | 1.29e6 | inactive |
| CG8236 | 1 | 1.52e6 | 1.74e6 | 1.41e6 | 1.57e6 | inactive |
| emb | 1 | 1.09e6 | 1.26e6 | 5.58e5 | 6.87e5 | inactive |
| CG3706 | 1 | 1.66e6 | 1.76e6 | 1.10e6 | 1.22e6 | inactive |
| CG7289 | 1 | 1.41e6 | 1.39e6 | 1.04e6 | 1.25e6 | inactive |
| Atg13 | 1 | 1.59e6 | 1.76e6 | 1.20e6 | 1.33e6 | inactive |
| CG13376 | 1 | 1.55e6 | 1.53e6 | 1.19e6 | 1.21e6 | inactive |
| CG1688 | 1 | 1.40e6 | 1.39e6 | 9.13e5 | 1.01e6 | inactive |
| CG17786 | 1 | 1.55e6 | 1.69e6 | 9.47e5 | 1.08e6 | inactive |
| CG33221 (retired record) | 1 | 1.34e6 | 1.44e6 | 1.04e6 | 1.12e6 | inactive |
| bbx + waw | 1 | 1.50e6 | 1.52e6 | 1.04e6 | 1.14e6 | inactive |
| bbx + waw | 2 | 1.47e6 | 1.44e6 | 1.05e6 | 1.14e6 | inactive |
| RluA-1 | 1 | 1.77e6 | 1.80e6 | 1.19e6 | 1.45e6 | inactive |
| RluA-1 | 2 | 1.72e6 | 1.68e6 | 1.21e6 | 1.40e6 | inactive |
| mtt | 1 | 1.51e6 | 1.60e6 | 7.61e5 | 9.16e5 | inactive |
| mtt | 2 | 1.56e6 | 1.71e6 | 9.21e5 | 1.10e6 | inactive |
| mtt | 3 | 1.58e6 | 1.69e6 | 1.28e6 | 1.43e6 | inactive |
| mtt | 4 | 1.68e6 | 1.78e6 | 1.20e6 | 1.38e6 | inactive |
| CG42237 | 1 | 1.72e6 | 1.60e6 | 1.11e6 | 1.19e6 | inactive |
| Vha100-4 | 1 | 1.23e6 | 1.25e6 | 1.08e6 | 1.14e6 | inactive |
| CG33992 (retired record) + CG43755 | 1 | 1.56e6 | 1.57e6 | 1.04e6 | 1.17e6 | inactive |
| CG34323 | 1 | 1.21e6 | 1.40e6 | 1.08e6 | 1.10e6 | inactive |
| Piezo | 1 | 1.33e6 | 1.39e6 | 6.16e5 | 8.86e5 | inactive |
| CG16972 | 1 | 1.55e6 | 1.64e6 | 1.04e6 | 1.01e6 | inactive |
| CG8813 | 1 | 1.28e6 | 1.30e6 | 8.62e5 | 8.95e5 | inactive |
| Ir52d | 1 | 1.70e6 | 1.70e6 | 1.26e6 | 1.47e6 | inactive |
| Vha55 | 1 | 1.53e6 | 1.56e6 | 1.20e6 | 1.31e6 | inactive |
| Mal-A1 | 1 | 1.53e6 | 1.59e6 | 1.26e6 | 1.38e6 | inactive |
| CG10384 | 1 | 5.78e5 | – | 8.61e5 | – | inactive |
| CG10384 | 2 | 1.44e6 | 1.43e6 | 9.24e5 | 1.07e6 | inactive |
| Gr10b | 1 | 1.57e6 | 1.51e6 | 1.08e6 | 1.21e6 | inactive |
| Acp1 | 1 | 1.69e6 | 1.68e6 | 1.19e6 | 1.31e6 | inactive |
| side-IV + CG17025 (retired record) | 1 | 1.35e6 | 1.35e6 | 1.06e6 | 1.22e6 | inactive |
| CG7272 | 1 | 1.45e6 | 1.55e6 | 1.33e6 | 1.38e6 | inactive |
| Idi | 1 | 1.65e6 | 1.64e6 | 1.29e6 | 1.34e6 | inactive |
| DCTN4-p62 | 1 | 9.31e5 | 9.68e5 | 7.64e5 | 6.60e5 | inactive |
| Rab2 | 1 | 1.37e6 | 1.51e6 | 1.19e6 | 1.22e6 | inactive |
| CG12682 | 1 | 1.55e6 | 1.52e6 | 1.14e6 | 1.30e6 | inactive |
| CG12159 | 1 | 1.40e6 | 1.55e6 | 1.18e6 | 1.30e6 | inactive |
| fray | 1 | 1.13e6 | 1.24e6 | 1.03e6 | 1.07e6 | inactive |
| meso18E | 1 | 1.31e6 | 1.36e6 | 1.01e6 | 1.07e6 | inactive |
| CG31454 | 1 | 1.43e6 | 1.65e6 | 1.26e6 | 1.30e6 | inactive |
| meigo | 1 | 1.50e6 | 1.55e6 | 8.94e5 | 9.67e5 | inactive |
| mAcon1 | 1 | 1.84e6 | 1.94e6 | 1.52e6 | 4.13e5 | inactive |
| CG13840 | 1 | 1.65e6 | 1.73e6 | 9.17e5 | 1.02e6 | inactive |
